At least one structure is not confirmed: it was looked up by name or label, or the drawing left a doubt.
Assays:
Format in all cases: cell-based, human
[1] = system: PPARγ in UMCR 7 cells; test: PPRE/luciferase reporter, UMCR 7; settings: 10 μM, 24-hour treatment
[2] = system: Saos-2 cells; test: DNA content (Hoechst H 33258) as measure of cell proliferation, Saos-2; settings: single treatment
Experimental: Cells exposed to a single treatment of troglitazone, 5-fluorouracil, and/or cis-platinum for 3 days. […] The phrase “cell proliferation” is used herein interchangeably with “cell growth.” Concentration of cellular DNA was determined using Hoechst dye H 33258 and a Hoefer DyNA Quant fluorometer according to manufacturer's instructions. Results are expressed as μg DNA/well. All experiments were done in triplicate.

[3] = system: p130, retinoblastoma, p107, p27, p16, and −15; test: Ribonuclease protection assay, other cell cycle inhibitor genes; settings: single treatment 1 μM, 24 hr
[4] = system: p18 mRNA; test: Ribonuclease protection assay, cell cycle regulator mRNA; settings: single treatment 1 μM, 24 hr

Cc1c(C)c2c(c(C)c1O)CCC(C)(COc1ccc(CC3SC(=O)NC3=O)cc1)O2 (racemic) [troglitazone, ±5-[[4-[(3,4-dihydro-6-hydroxy-2,5,7,8-tetramethyl-2H-1-benzopyran-2-yl)methoxy]phenyl]methyl]-2,4-thiazolidinedione]
PPARγ-mediated transcription in response to treatment [1]: little or no
inhibition of cell proliferation, compounds compared (FIG. 7) [2]: much more potent
change of mRNA of other cell cycle inhibitor genes [3]: little change
change of p18 mRNA level [4]: not change
